Data on four molecules can be found in paper PMC8050258.

Sequences of proteins named here, by UniProt entry; tags and fusion partners are left off.
UniProt Q04206: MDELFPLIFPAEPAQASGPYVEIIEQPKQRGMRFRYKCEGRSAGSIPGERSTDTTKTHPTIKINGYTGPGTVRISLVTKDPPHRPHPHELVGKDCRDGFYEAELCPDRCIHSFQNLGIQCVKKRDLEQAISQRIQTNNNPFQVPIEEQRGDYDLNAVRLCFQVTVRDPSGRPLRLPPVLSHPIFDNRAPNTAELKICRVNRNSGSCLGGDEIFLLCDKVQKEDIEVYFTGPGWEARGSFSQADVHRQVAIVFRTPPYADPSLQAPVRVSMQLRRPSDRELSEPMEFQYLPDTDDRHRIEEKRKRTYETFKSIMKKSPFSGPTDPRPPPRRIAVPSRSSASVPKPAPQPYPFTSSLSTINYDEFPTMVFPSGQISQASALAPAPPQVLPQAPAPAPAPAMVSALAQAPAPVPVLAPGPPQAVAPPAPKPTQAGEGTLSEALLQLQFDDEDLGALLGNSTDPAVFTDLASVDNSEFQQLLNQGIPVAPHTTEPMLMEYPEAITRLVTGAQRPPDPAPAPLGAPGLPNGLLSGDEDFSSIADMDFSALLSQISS

Assay [1] concerns the target T1, His-tagged SELENOW (SeCys-13) (UniProt P63300).
T1 sequence (chain, selenocysteine at 13 (SeCys-13)): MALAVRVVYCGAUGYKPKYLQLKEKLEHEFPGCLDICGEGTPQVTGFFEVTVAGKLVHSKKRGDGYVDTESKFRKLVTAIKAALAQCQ
Nature of the assay: co-IP; called His-tag pull-down: extracts of HEK 293T cells expressing His-tagged SELENOW (wild type or SeCys-13 mutants), RIPA buffer, incubated overnight at 4 °C with anti-His-tag antibody, protein G agarose 3 h at 4 °C, washed three times with RIPA buffer, immunoblotted.

Assay [2] concerns the target T2, SELENOW (retrovirally overexpressed in pre-osteoclasts) (UniProt P63300).
T2 sequence (chain, selenocysteine at 13 (SeCys encoded by UGA at codon 13)): T1 sequence (chain, selenocysteine at 13 (SeCys-13))
As to the kind of experiment: co-IP; nuclear extracts of pre-osteoclasts (osteoclast precursors infected with SELENOW-overexpressing retrovirus, M-CSF and RANKL for 2 days) immunoprecipitated with antibodies against NFATc1, p65, 14-3-3γ or SELENOW, immunoblotted.

In assay [3] the target is His-tagged SELENOW mutant SeCys13S (UniProt P63300). As to the kind of experiment: co-IP; called His-tag pull-down: extracts of HEK 293T cells expressing His-tagged SELENOW (wild type or SeCys-13 mutants), RIPA buffer, incubated overnight at 4 °C with anti-His-tag antibody, protein G agarose 3 h at 4 °C, washed three times with RIPA buffer, immunoblotted. Background: A western blot detects proteins with antibodies after separation by electrophoresis.

Assay [4] addresses His-tagged SELENOW mutant SeCys13C (UniProt P63300). Described as above.

No constants are given. Whether binding was seen depends on the method and setting. In cells and extracts the contact can be indirect. For part of these data: Tags and fused reporters may be left off the sequences shown.

Regarding “AP-1, endogenous in HEK 293T (human (endogenous in HEK 293T)) (complex)”, in assay [1], the binding entry is “no binding”.
On to “AP-1, endogenous in mouse pre-osteoclasts (complex)”, for which the binding result in assay [2] is “no binding”.
Regarding “NF-κB (p65), endogenous in HEK 293T (from UniProt Q04206 1-551)”, the binding result in assay [3] and in assay [4] was “no binding” throughout.

B1: NFATc1, endogenous in HEK 293T (protein, UniProt O95644 1-943)
chain: MPSTSFPVPSKFPLGPAAAVFGRGETLGPAPRAGGTMKSAEEEHYGYASSNVSPALPLPTAHSTLPAPCHNLQTSTPGIIPPADHPSGYGAALDGGPAGYFLSSGHTRPDGAPALESPRIEITSCLGLYHNNNQFFHDVEVEDVLPSSKRSPSTATLSLPSLEAYRDPSCLSPASSLSSRSCNSEASSYESNYSYPYASPQTSPWQSPCVSPKTTDPEEGFPRGLGACTLLGSPRHSPSTSPRASVTEESWLGARSSRPASPCNKRKYSLNGRQPPYSPHHSPTPSPHGSPRVSVTDDSWLGNTTQYTSSAIVAAINALTTDSSLDLGDGVPVKSRKTTLEQPPSVALKVEPVGEDLGSPPPPADFAPEDYSSFQHIRKGGFCDQYLAVPQHPYQWAKPKPLSPTSYMSPTLPALDWQLPSHSGPYELRIEVQPKSHHRAHYETEGSRGAVKASAGGHPIVQLHGYLENEPLMLQLFIGTADDRLLRPHAFYQVHRITGKTVSTTSHEAILSNTKVLEIPLLPENSMRAVIDCAGILKLRNSDIELRKGETDIGRKNTRVRLVFRVHVPQPSGRTLSLQVASNPIECSQRSAQELPLVEKQSTDSYPVVGGKKMVLSGHNFLQDSKVIFVEKAPDGHHVWEMEAKTDRDLCKPNSLVVEIPPFRNQRITSPVHVSFYVCNGKRKRSQYQRFTYLPANVPIIKTEPTDDYEPAPTCGPVSQGLSPLPRPYYSQQLAMPPDPSSCLVAGFPPCPQRSTLMPAAPGVSPKLHDLSPAAYTKGVASPGHCHLGLPQPAGEAPAVQDVPRPVATHPGSPGQPPPALLPQQVSAPPSSSCPPGLEHSLCPSSPSPPLPPATQEPTCLQPCSPACPPATGRPQHLPSTVRRDESPTAGPRLLPEVHEDGSPNLAPIPVTVKREPEELDQLYLDDVNEIIRNDLSSTSTHS
On to B1, for which the binding entry in assay [3] and in assay [4] was “no binding” each time.
